Where two headings read alike, the source gives them in different places. Results are given in words; binding and its absence hold for the method and conditions named. In cells and extracts the contact can be indirect. A yes stands for co-enrichment or nearness to the bait. Other partners may have been found. For part of these data: A no says only that the protein was not detected with the bait. Where a sequence is shown, tags or fusion partners need not be part of it.
Assays:
Assay in all cases: affinity purification with mass spectrometry
[1] = target: T1, Cys293S mutated GCN5-GFP from pGCN5::GCN5(GCN5C293S)-GFP(gcn5) plants (Arabidopsis thaliana) (UniProt Q9AR19)
T1 sequence: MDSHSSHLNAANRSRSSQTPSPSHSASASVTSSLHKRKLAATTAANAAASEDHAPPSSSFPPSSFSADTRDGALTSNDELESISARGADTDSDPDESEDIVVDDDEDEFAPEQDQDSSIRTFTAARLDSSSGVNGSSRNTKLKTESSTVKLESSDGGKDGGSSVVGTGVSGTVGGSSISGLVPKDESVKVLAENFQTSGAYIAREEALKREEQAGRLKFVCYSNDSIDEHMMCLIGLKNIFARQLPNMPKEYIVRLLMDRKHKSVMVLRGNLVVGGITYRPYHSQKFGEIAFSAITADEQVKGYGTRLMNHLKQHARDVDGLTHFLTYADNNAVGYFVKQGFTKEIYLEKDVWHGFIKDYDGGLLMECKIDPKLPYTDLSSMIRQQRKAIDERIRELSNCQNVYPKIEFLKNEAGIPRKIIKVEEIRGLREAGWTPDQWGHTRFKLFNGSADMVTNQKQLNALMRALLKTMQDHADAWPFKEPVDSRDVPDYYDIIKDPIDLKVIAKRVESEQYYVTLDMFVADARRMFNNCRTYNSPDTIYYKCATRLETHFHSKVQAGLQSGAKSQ

[2] = target: T1, Cys293S mutated GCN5-GFP from pGCN5::GCN5(GCN5C293S)-GFP(gcn5) plants (Arabidopsis thaliana); remark: listed apart in the source
[3] = target: T2, wild type GCN5-GFP from pGCN5::GCN5(GCN5wt)-GFP(gcn5) plants (Arabidopsis thaliana) (UniProt Q9AR19)
T2 sequence: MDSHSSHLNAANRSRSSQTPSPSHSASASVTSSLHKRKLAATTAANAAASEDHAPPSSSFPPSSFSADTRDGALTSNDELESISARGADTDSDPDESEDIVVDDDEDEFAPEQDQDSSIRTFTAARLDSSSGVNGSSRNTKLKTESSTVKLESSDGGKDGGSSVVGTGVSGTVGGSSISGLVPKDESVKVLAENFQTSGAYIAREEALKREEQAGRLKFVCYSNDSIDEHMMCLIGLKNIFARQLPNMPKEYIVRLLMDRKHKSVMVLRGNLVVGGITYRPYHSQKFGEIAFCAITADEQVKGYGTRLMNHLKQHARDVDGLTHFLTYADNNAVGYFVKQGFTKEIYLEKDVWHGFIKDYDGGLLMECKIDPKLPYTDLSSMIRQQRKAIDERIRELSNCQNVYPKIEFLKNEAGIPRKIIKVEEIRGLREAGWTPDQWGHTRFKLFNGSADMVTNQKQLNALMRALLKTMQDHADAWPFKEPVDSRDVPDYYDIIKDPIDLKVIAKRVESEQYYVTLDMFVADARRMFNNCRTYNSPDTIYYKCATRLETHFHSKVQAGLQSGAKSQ

EAF6
binding [1]: no binding

SDRL
binding [1]: no binding

B1: ADA2A (protein, UniProt Q9SFD5 1-548)
chain: MGRSKLASRPAEEDLNPGKSKRKKISLGPENAAASISTGIEAGNERKPGLYCCNYCDKDLSGLVRFKCAVCMDFDLCVECFSVGVELNRHKNSHPYRVMDNLSFSLVTSDWNADEEILLLEAIATYGFGNWKEVADHVGSKTTTECIKHFNSAYMQSPCFPLPDLSHTIGKSKDELLAMSKDSAVKTEIPAFVRLSPKEELPVSAEIKHEASGKVNEIDPPLSALAGVKKKGNVPQAKDIIKLEAAKQQSDRSVGEKKLRLPGEKVPLVTELYGYNLKREEFEIEHDNDAEQLLADMEFKDSDTDAEREQKLQVLRIYSKRLDERKRRKEFVLERNLLYPDQYEMSLSAEERKIYKSCKVFARFQSKEEHKELIKKVIEEHQILRRIEDLQEARTAGCRTTSDANRFIEEKRKKEAEESMLLRLNHGAPGSIAGKTLKSPRGLPRNLHPFGSDSLPKVTPPRIYSGLDTWDVDGLLGADLLSETEKKMCNETRILPVHYLKMLDILTREIKKGQIKKKSDAYSFFKVEPSKVDRVYDMLVHKGIGDST
binding [2]: binds | binding [3]: binds

B2: ADA2B (protein, UniProt Q9ATB4 1-487)
chain: MGRSRGNFQNFEDPTQRTRKKKNAANVENFESTSLVPGAEGGGKYNCDYCQKDITGKIRIKCAVCPDFDLCIECMSVGAEITPHKCDHPYRVMGNLTFPLICPDWSADDEMLLLEGLEIYGLGNWAEVAEHVGTKSKEQCLEHYRNIYLNSPFFPLPDMSHVAGKNRKELQAMAKGRIDDKKAEQNMKEEYPFSPPKVKVEDTQKESFVDRSFGGKKPVSTSVNNSLVELSNYNQKREEFDPEYDNDAEQLLAEMEFKENDTPEEHELKLRVLRIYSKRLDERKRRKEFIIERNLLYPNPFEKDLSQEEKVQCRRLDVFMRFHSKEEHDELLRNVVSEYRMVKRLKDLKEAQVAGCRSTAEAERYLGRKRKRENEEGMNRGKESGQFGQIAGEMGSRPPVQASSSYVNDLDLIGFTESQLLSESEKRLCSEVKLVPPVYLQMQQVMSHEIFKGNVTKKSDAYSLFKIDPTKVDRVYDMLVKKGIAQL
binding [2]: binds | binding [3]: binds

Reference: publication doi:10.1101/2024.04.24.590918
